In the supplement of paper PMC6411743:
± gives the standard deviation of the averaged measurements. This is a selection; strong and weak results do not stand in their true shares.

Sequences of proteins named here, by UniProt entry; tags and fusion partners are left off. A change or cut given only in a name is not applied to a line headed by its entry.
UniProt P42575: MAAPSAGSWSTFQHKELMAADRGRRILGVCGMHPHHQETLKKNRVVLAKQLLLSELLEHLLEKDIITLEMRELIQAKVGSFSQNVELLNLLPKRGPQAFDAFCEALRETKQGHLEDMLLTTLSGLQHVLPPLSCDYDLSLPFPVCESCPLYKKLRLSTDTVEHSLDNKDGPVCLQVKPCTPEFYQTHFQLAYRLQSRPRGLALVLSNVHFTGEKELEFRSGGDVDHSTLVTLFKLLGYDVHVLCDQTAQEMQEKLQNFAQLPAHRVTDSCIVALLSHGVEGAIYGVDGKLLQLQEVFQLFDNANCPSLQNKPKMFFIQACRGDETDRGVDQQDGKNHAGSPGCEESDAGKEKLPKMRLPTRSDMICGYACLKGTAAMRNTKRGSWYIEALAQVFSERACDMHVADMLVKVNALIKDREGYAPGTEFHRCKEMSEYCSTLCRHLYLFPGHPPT
UniProt P50583: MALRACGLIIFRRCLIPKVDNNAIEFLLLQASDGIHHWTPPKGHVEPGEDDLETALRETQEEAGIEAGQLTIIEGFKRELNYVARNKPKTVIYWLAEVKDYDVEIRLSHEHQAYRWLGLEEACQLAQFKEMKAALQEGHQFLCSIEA
UniProt P49137, whole entry, looked up: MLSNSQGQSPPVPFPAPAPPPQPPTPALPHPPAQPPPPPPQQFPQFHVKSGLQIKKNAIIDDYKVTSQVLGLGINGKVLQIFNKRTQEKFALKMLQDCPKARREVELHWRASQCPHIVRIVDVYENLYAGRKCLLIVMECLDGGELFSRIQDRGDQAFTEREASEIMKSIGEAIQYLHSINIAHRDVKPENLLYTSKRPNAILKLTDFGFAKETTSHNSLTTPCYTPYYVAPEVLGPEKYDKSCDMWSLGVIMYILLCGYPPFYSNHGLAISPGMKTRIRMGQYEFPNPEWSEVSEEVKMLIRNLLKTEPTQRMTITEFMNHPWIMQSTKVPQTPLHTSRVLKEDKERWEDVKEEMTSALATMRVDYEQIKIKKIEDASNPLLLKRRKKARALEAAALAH
UniProt P48047: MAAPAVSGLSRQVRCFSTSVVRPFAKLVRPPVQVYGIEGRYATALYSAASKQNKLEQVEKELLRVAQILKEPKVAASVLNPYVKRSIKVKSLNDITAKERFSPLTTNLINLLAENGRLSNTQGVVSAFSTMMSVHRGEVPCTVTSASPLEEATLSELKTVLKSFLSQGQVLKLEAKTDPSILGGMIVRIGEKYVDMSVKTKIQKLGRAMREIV
UniProt P49590: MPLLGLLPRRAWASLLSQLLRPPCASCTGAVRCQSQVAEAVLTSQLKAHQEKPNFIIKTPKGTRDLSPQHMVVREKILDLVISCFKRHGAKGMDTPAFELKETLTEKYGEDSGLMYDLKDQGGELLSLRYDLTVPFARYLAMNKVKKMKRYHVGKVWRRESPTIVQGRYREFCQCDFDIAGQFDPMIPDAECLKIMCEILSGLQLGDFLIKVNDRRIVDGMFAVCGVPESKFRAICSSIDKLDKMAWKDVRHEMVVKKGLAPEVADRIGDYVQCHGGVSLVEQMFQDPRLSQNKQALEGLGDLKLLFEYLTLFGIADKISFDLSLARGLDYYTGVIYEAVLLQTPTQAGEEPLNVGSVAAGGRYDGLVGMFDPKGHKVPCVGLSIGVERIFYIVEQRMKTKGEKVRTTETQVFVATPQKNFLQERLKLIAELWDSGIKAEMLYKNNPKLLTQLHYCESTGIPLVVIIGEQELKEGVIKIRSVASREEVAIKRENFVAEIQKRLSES
UniProt P49915: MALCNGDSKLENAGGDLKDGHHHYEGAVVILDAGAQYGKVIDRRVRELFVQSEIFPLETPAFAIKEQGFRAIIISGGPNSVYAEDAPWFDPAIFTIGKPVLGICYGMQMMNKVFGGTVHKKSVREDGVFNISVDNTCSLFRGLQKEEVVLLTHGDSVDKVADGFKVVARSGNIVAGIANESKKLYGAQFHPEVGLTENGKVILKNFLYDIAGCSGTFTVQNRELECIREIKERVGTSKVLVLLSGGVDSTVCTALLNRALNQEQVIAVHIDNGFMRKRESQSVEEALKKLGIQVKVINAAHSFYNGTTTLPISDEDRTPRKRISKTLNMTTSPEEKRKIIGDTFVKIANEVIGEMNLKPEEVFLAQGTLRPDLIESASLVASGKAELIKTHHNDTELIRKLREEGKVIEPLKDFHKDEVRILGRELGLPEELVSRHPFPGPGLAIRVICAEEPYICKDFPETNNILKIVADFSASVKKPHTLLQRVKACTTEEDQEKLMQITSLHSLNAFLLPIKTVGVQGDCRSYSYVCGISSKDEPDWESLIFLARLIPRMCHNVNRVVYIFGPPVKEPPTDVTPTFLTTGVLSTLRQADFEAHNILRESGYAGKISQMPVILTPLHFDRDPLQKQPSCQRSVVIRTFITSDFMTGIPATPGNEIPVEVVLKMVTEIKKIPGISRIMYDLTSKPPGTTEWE
UniProt P47897: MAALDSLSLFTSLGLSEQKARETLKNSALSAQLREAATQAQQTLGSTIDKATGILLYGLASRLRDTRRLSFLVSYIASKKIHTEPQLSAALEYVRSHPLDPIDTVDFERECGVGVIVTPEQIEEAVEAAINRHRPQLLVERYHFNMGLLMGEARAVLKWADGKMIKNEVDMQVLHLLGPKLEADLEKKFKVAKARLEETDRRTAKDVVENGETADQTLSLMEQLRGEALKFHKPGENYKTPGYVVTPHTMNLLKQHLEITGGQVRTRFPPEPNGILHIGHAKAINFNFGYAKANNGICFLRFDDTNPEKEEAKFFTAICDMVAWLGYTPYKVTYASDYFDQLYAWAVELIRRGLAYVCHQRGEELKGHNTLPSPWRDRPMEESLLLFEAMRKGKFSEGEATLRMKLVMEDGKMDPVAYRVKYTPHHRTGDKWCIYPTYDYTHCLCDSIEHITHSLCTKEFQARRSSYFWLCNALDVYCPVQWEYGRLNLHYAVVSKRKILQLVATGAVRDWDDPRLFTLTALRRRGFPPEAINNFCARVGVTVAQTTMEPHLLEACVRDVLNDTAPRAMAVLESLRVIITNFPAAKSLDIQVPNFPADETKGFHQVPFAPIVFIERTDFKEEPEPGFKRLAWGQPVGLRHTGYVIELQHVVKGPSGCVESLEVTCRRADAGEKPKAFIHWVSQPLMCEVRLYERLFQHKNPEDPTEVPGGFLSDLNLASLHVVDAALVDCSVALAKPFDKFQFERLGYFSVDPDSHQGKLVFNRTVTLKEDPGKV
UniProt P46060: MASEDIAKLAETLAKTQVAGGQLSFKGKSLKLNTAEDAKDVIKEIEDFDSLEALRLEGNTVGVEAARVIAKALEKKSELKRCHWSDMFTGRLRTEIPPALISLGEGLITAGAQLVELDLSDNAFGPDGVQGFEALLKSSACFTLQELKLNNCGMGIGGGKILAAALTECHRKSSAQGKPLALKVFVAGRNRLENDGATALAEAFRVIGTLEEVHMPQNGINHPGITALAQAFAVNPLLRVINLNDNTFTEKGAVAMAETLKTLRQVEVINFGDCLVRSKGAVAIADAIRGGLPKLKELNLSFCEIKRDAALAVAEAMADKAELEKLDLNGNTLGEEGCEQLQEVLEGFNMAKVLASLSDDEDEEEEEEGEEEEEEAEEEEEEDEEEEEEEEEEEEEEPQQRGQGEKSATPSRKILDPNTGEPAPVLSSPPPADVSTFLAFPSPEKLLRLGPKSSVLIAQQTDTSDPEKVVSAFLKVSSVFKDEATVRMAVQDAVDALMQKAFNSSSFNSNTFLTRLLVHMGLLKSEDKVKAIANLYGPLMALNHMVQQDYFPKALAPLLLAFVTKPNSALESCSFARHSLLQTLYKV
UniProt P53618: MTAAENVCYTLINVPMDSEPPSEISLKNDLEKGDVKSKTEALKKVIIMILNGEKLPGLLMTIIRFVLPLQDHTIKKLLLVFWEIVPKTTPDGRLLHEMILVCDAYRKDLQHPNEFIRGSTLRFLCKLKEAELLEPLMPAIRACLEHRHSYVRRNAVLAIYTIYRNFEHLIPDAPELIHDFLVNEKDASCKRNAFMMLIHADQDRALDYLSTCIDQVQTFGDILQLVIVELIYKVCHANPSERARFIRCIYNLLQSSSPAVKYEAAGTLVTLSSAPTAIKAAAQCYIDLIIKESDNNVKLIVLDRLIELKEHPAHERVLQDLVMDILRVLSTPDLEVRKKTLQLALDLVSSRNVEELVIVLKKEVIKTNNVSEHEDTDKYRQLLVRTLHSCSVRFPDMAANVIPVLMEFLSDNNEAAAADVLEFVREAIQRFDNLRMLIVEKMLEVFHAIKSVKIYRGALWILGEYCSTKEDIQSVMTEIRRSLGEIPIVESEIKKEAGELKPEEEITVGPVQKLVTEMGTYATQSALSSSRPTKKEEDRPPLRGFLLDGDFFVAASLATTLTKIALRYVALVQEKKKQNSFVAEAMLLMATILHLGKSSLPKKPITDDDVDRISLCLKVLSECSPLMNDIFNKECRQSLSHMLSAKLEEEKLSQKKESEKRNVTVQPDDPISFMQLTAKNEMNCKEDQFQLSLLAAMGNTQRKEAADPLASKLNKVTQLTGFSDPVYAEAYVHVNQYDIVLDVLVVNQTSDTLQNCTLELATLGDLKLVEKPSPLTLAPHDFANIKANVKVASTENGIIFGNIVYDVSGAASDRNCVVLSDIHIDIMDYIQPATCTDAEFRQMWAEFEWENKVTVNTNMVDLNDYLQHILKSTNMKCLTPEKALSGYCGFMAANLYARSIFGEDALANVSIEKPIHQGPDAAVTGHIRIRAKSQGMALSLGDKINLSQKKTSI
UniProt P51790: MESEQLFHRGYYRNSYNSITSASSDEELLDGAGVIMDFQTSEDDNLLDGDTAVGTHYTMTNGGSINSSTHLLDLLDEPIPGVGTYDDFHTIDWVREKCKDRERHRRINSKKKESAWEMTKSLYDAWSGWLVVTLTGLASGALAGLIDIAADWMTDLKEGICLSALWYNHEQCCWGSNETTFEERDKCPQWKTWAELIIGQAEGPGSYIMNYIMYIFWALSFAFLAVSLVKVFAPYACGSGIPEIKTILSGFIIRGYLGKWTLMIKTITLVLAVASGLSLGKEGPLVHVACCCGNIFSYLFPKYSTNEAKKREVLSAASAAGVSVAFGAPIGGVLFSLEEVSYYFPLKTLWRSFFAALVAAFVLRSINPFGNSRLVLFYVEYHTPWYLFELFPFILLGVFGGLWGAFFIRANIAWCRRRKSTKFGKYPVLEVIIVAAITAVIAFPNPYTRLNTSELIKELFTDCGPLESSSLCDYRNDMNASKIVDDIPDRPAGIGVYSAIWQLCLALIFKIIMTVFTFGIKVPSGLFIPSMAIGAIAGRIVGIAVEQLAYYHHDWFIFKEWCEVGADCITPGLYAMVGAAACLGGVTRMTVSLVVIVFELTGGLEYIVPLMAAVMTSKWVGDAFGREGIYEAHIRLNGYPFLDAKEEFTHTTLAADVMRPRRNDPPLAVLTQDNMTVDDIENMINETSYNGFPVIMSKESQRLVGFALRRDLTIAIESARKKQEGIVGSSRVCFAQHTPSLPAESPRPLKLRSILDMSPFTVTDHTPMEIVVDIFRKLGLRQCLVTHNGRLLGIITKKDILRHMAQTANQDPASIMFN
UniProt P49902: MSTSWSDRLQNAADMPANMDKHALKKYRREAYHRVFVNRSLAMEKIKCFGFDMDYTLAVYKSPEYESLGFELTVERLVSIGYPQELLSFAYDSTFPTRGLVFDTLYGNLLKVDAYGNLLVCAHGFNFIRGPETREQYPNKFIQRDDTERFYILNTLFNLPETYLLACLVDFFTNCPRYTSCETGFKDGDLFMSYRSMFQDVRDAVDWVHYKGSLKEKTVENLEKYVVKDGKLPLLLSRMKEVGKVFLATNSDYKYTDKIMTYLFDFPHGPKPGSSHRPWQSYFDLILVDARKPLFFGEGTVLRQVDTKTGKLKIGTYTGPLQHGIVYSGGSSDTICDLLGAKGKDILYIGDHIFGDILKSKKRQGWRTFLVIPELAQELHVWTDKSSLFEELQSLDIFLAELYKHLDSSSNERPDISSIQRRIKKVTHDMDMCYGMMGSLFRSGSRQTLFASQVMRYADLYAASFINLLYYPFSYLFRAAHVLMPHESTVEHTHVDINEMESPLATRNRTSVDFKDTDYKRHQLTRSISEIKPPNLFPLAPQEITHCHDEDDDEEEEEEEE
UniProt P43034: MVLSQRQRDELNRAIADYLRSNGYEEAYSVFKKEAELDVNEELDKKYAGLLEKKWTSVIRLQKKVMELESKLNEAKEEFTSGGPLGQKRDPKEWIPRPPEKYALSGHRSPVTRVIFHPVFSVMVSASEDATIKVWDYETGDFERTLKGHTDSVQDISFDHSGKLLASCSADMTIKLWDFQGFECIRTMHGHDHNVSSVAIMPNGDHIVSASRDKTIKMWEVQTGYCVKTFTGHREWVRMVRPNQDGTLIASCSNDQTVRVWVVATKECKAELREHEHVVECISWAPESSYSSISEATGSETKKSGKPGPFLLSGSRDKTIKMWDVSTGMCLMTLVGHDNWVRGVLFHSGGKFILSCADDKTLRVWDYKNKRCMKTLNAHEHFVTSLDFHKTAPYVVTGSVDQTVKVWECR

Compound: Nc1ncnc2c1ncn2[C@@H]1O[C@H](COP(=O)(O)OP(=O)(O)NP(=O)(O)O)[C@@H](O)[C@H]1O [adenylyl imidodiphosphate]
Test: NP40-soluble protein abundance relative to vehicle (solubility fold change) (ratio); higher = more soluble protein in presence of AMP-PNP
Procedure, shortened: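 Data come from three independent experiments in which Dounce-homogenised Jurkat crude lysate was treated at eight concentrations from 0.1 to 10 mM. Treatment ran 10 min at room temperature and then 3 min at 37 °C, after which 0.8% NP40 and benzonase were added for 60 min at 4 °C before ultracentrifugation. The supernatant underwent TMT labelling and LC-MS/MS, and vsn-normalised intensities were expressed as fold change against the detergent-processed vehicle in each replicate.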

Target	NP40-soluble protein abundance (concentration: 1mM)	NP40-soluble protein abundance (concentration: 2mM)	NP40-soluble protein abundance (concentration: 4mM)	NP40-soluble protein abundance (concentration: 6mM)	NP40-soluble protein abundance (concentration: 8mM)	NP40-soluble protein abundance (concentration: 10mM)
HSPA13 (UniProt P48723)	1.05 ± 0.051	1.05 ± 0.044	1.06 ± 0.067	1.04 ± 0.011	1.05 ± 0.045	1.03 ± 0.043
FASN (UniProt P49327)	0.959 ± 0.021	0.874 ± 0.091	0.941 ± 0.026	0.913 ± 0.026	0.917 ± 0.035	0.896 ± 0.036
GCLM (UniProt P48507)	1.03 ± 0.017	1.018 ± 0.0095	1 ± 0.022	0.999 ± 0.025	1.01 ± 0.017	0.984 ± 0.014
CASP2 (UniProt P42575)	1.01 ± 0.053	0.976 ± 0.052	0.989 ± 0.028	0.992 ± 0.05	1.01 ± 0.048	0.984 ± 0.042
SERPINB8 (UniProt P50452)	1.02 ± 0.013	0.963 ± 0.063	1 ± 0.037	0.987 ± 0.0084	1 ± 0.022	0.982 ± 0.033
UniProt P52306 and related entries	0.968 ± 0.043	0.974 ± 0.038	0.973 ± 0.04	1.03 ± 0.076	1.01 ± 0.074	1.01 ± 0.068
UniProt P41214	1.02 ± 0.032	0.996 ± 0.059	1.05 ± 0.04	1.02 ± 0.025	1.04 ± 0.061	1.05 ± 0.041
UniProt P49407-2|P49407	1.04 ± 0.022	1.04 ± 0.015	1.05 ± 0.034	1.08 ± 0.078	1.11 ± 0.038	1.11 ± 0.022
RPL34 (UniProt P49207)	1.03 ± 0.011	1.01 ± 0.03	0.978 ± 0.019	0.922 ± 0.011	0.749 ± 0.04	0.995 ± 0.016
NUDT2 (UniProt P50583)	0.9311 ± 0.0079	0.909 ± 0.027	1.56 ± 0.26	1.22 ± 0.17	1.49 ± 0.23	1.14 ± 0.14
UniProt P51148 and related entries	0.971 ± 0.058	0.9061 ± 0.0077	0.971 ± 0.047	1.05 ± 0.095	1.08 ± 0.12	1.03 ± 0.069
CLNS1A (UniProt P54105)	0.997 ± 0.037	1.03 ± 0.023	0.991 ± 0.049	0.949 ± 0.044	0.917 ± 0.041	0.926 ± 0.043
MAPKAPK2 (UniProt P49137)	0.995 ± 0.011	1.02 ± 0.082	1.02 ± 0.017	1.05 ± 0.058	1.05 ± 0.058	1.07 ± 0.046
PSMB2 (UniProt P49721)	0.964 ± 0.023	0.86 ± 0.073	0.92 ± 0.062	0.921 ± 0.021	0.97 ± 0.038	0.892 ± 0.062
CRKL (UniProt P46109)	1.026 ± 0.0079	1.04 ± 0.03	1.03 ± 0.0095	0.998 ± 0.022	0.985 ± 0.018	0.985 ± 0.049
UniProt P48047	0.907 ± 0.042	0.912 ± 0.041	0.896 ± 0.051	0.96 ± 0.087	0.974 ± 0.045	0.938 ± 0.1
UniProt P55060 and related entries	1 ± 0.012	1.02 ± 0.11	0.987 ± 0.032	1.01 ± 0.04	0.985 ± 0.027	1.02 ± 0.04
EIF2S3 (UniProt P41091)	1.02 ± 0.024	0.978 ± 0.053	1.03 ± 0.014	1.14 ± 0.085	1.15 ± 0.034	1.13 ± 0.028
UniProt P49590 and related entries	0.979 ± 0.02	0.929 ± 0.095	0.963 ± 0.026	0.923 ± 0.014	0.951 ± 0.024	0.895 ± 0.041
UniProt P40925 and related entries	0.964 ± 0.02	0.9471 ± 0.0058	0.914 ± 0.027	0.982 ± 0.029	0.961 ± 0.029	0.972 ± 0.027

Target	NP40-soluble protein abundance (concentration: 1mM)	NP40-soluble protein abundance (concentration: 2mM)	NP40-soluble protein abundance (concentration: 4mM)	NP40-soluble protein abundance (concentration: 6mM)	NP40-soluble protein abundance (concentration: 8mM)	NP40-soluble protein abundance (concentration: 10mM)
GMPS (UniProt P49915)	1 ± 0.02	0.933 ± 0.053	0.971 ± 0.023	0.9656 ± 0.0086	0.976 ± 0.01	0.941 ± 0.035
UniProt P51812	1.05 ± 0.03	0.941 ± 0.087	1.04 ± 0.015	0.961 ± 0.0088	1.052 ± 0.0055	0.931 ± 0.018
PHKA2 (UniProt P46019)	0.976 ± 0.043	0.954 ± 0.093	0.96 ± 0.057	0.919 ± 0.081	0.92 ± 0.077	0.917 ± 0.098
PSMC4 (UniProt P43686)	0.906 ± 0.041	0.921 ± 0.06	0.885 ± 0.08	0.871 ± 0.079	0.866 ± 0.082	0.859 ± 0.1
UniProt P49841 and related entries	0.991 ± 0.019	0.955 ± 0.06	0.988 ± 0.018	0.982 ± 0.023	0.998 ± 0.028	1.01 ± 0.043
PBX2 (UniProt P40425)	0.994 ± 0.024	1.01 ± 0.053	0.982 ± 0.02	0.994 ± 0.048	1.01 ± 0.052	1.01 ± 0.054
UniProt P47756-2	1.02 ± 0.02	1.05 ± 0.014	1 ± 0.027	1 ± 0.035	0.975 ± 0.026	1.01 ± 0.043
PPT1 (UniProt P50897)	1.01 ± 0.04	1.05 ± 0.13	1 ± 0.075	1.07 ± 0.074	1.04 ± 0.071	1.01 ± 0.073
UniProt P40337 and related entries	0.981 ± 0.036	0.99 ± 0.021	0.997 ± 0.022	0.973 ± 0.055	1.02 ± 0.053	0.961 ± 0.073
UniProt P50579 and related entries	1.033 ± 0.0092	1.07 ± 0.042	1.04 ± 0.038	1.02 ± 0.015	1.01 ± 0.022	1.028 ± 0.0084
UniProt P50570-4|P50570 and related entries	0.993 ± 0.019	0.932 ± 0.014	0.975 ± 0.038	0.968 ± 0.052	0.988 ± 0.047	0.971 ± 0.054
NAMPT (UniProt P43490)	0.959 ± 0.025	0.903 ± 0.097	0.9559 ± 0.0052	0.966 ± 0.018	0.971 ± 0.01	0.936 ± 0.013
PPP1R2 (UniProt P41236)	1.04 ± 0.072	1.07 ± 0.023	1.03 ± 0.016	1 ± 0.02	0.958 ± 0.044	0.995 ± 0.04
UniProt P51648 and related entries	0.985 ± 0.04	0.889 ± 0.089	0.975 ± 0.022	0.983 ± 0.026	1.01 ± 0.027	0.962 ± 0.033
MFAP1 (UniProt P55081)	1.06 ± 0.032	1.08 ± 0.11	1.03 ± 0.045	1.09 ± 0.028	1.05 ± 0.054	1.07 ± 0.045
YARS (UniProt P54577)	1.011 ± 0.0097	1.01 ± 0.023	0.981 ± 0.023	1.02 ± 0.015	0.991 ± 0.029	1 ± 0.061
UniProt P49406 and related entries	0.948 ± 0.081	0.907 ± 0.14	0.939 ± 0.12	0.9 ± 0.087	0.927 ± 0.12	0.904 ± 0.11
UniProt P50613	0.99 ± 0.042	0.942 ± 0.065	0.968 ± 0.039	1.01 ± 0.027	1.01 ± 0.031	0.994 ± 0.036
UniProt P47897 and related entries	0.972 ± 0.076	0.897 ± 0.18	0.949 ± 0.14	0.923 ± 0.13	0.946 ± 0.13	0.903 ± 0.18
UniProt P41250	0.982 ± 0.014	0.949 ± 0.029	0.9464 ± 0.006	0.99 ± 0.029	0.973 ± 0.045	0.956 ± 0.031

Four entries drawn at random from those above, as already listed:
Target	NP40-soluble protein abundance (concentration: 1mM)	NP40-soluble protein abundance (concentration: 2mM)	NP40-soluble protein abundance (concentration: 4mM)	NP40-soluble protein abundance (concentration: 6mM)	NP40-soluble protein abundance (concentration: 8mM)	NP40-soluble protein abundance (concentration: 10mM)
UniProt P48047	0.907 ± 0.042	0.912 ± 0.041	0.896 ± 0.051	0.96 ± 0.087	0.974 ± 0.045	0.938 ± 0.1
PSMC4 (UniProt P43686)	0.906 ± 0.041	0.921 ± 0.06	0.885 ± 0.08	0.871 ± 0.079	0.866 ± 0.082	0.859 ± 0.1
UniProt P51648 and related entries	0.985 ± 0.04	0.889 ± 0.089	0.975 ± 0.022	0.983 ± 0.026	1.01 ± 0.027	0.962 ± 0.033
FASN (UniProt P49327)	0.959 ± 0.021	0.874 ± 0.091	0.941 ± 0.026	0.913 ± 0.026	0.917 ± 0.035	0.896 ± 0.036

Further records follow:

Target	NP40-soluble protein abundance (concentration: 1mM)	NP40-soluble protein abundance (concentration: 2mM)	NP40-soluble protein abundance (concentration: 4mM)	NP40-soluble protein abundance (concentration: 6mM)	NP40-soluble protein abundance (concentration: 8mM)	NP40-soluble protein abundance (concentration: 10mM)
UniProt P46020-2|A6NMN0 and related entries	0.957 ± 0.016	0.931 ± 0.046	0.938 ± 0.046	0.913 ± 0.081	0.904 ± 0.065	0.904 ± 0.069
UniProt P49796 and related entries	0.983 ± 0.021	0.997 ± 0.049	0.972 ± 0.017	0.99 ± 0.026	0.997 ± 0.015	0.969 ± 0.05
GSS (UniProt P48637)	0.981 ± 0.027	0.918 ± 0.062	0.9826 ± 0.0058	0.98 ± 0.027	0.9833 ± 0.0051	0.9621 ± 0.0045
UniProt P49959	0.995 ± 0.035	1.01 ± 0.013	1.02 ± 0.032	1.03 ± 0.056	1.01 ± 0.04	0.997 ± 0.025
IARS (UniProt P41252)	0.962 ± 0.051	0.843 ± 0.18	0.908 ± 0.12	0.918 ± 0.11	0.956 ± 0.14	0.878 ± 0.2
PPP5C (UniProt P53041)	0.956 ± 0.032	0.93 ± 0.033	0.947 ± 0.013	0.996 ± 0.05	1.01 ± 0.045	0.977 ± 0.015
UniProt P50750 and related entries	1.05 ± 0.036	1.15 ± 0.089	1.14 ± 0.079	1.22 ± 0.068	1.27 ± 0.11	1.32 ± 0.13
PPOX (UniProt P50336)	0.9241 ± 0.0018	0.853 ± 0.12	0.9404 ± 0.0044	0.9541 ± 0.0089	0.981 ± 0.028	0.953 ± 0.033
RANGAP1 (UniProt P46060)	0.9947 ± 0.0076	1 ± 0.032	1 ± 0.036	1.03 ± 0.054	1.04 ± 0.05	1.07 ± 0.064
KPNA1 (UniProt P52294)	1.02 ± 0.012	0.97 ± 0.026	1.035 ± 0.007	0.993 ± 0.031	1.02 ± 0.035	0.989 ± 0.03
DUSP3 (UniProt P51452)	0.982 ± 0.039	0.981 ± 0.039	0.999 ± 0.028	1.02 ± 0.079	1.01 ± 0.015	1.02 ± 0.04
COPB1 (UniProt P53618)	0.947 ± 0.022	0.897 ± 0.072	0.945 ± 0.035	0.934 ± 0.0042	0.947 ± 0.017	0.904 ± 0.055
MTIF2 (UniProt P46199)	1.03 ± 0.016	1.01 ± 0.018	1.04 ± 0.014	1.02 ± 0.022	1 ± 0.028	1.04 ± 0.018
MCM2 (UniProt P49736)	0.936 ± 0.014	0.874 ± 0.11	0.904 ± 0.038	0.908 ± 0.031	0.908 ± 0.032	0.877 ± 0.061
RPL14 (UniProt P50914)	0.983 ± 0.082	0.958 ± 0.057	0.938 ± 0.13	0.862 ± 0.15	0.759 ± 0.071	0.894 ± 0.24
UniProt P51790 and related entries	0.9919 ± 0.0049	0.953 ± 0.033	0.9789 ± 0.0064	1 ± 0.051	1.042 ± 0.0058	1.02 ± 0.048
CDC34 (UniProt P49427)	1.04 ± 0.059	1.07 ± 0.037	1.06 ± 0.057	1.04 ± 0.039	1 ± 0.043	1.06 ± 0.017
NT5C2 (UniProt P49902)	0.972 ± 0.053	0.888 ± 0.071	0.969 ± 0.05	1.06 ± 0.13	1.11 ± 0.12	1.05 ± 0.07
NCBP2 (UniProt P52298)	1.02 ± 0.043	1.03 ± 0.049	1.04 ± 0.051	1.07 ± 0.014	1.05 ± 0.037	1.1 ± 0.019
UniProt P43034 and related entries	1 ± 0.06	0.977 ± 0.037	1 ± 0.033	1.05 ± 0.048	1.07 ± 0.034	1.04 ± 0.03
